At least one structure is not confirmed: it was looked up by name or label, or the drawing left a doubt. Some results were stated once for a whole list of compounds, not compound by compound.
Molecular target: T1, IL-17A-IL-17RA binding (Homo sapiens, UniProt Q96F46)
T1 construct: human IL-17RA-Fc (extracellular domain 1-322 AA fused with Fc region of human IgG1 at the C-terminus); purchased Sino Biological Inc
Assay: IL-17A-IL-17RA binding assay (ELISA)
Conditions: for IC50: range given for the group, units given in the value
Method: IL-17A-IL-17RA binding assay. ELISA plates were coated with human IL-17A or IL-17E (2 μg/ml in PBS). Human IL-17RA-Fc or human IL-17RB-Fc (150 ng/ml) were added and incubated for 1 h, followed by incubation with human HRP-conjugated anti human IgG Fc secondary antibody for 1 h. ELISA were finally developed using tetramethylbenzidine substrate.

By UniProt entry, the sequences of proteins in these tests, tags left out. Residues count along the entry.
UniProt Q96F46, 33-322: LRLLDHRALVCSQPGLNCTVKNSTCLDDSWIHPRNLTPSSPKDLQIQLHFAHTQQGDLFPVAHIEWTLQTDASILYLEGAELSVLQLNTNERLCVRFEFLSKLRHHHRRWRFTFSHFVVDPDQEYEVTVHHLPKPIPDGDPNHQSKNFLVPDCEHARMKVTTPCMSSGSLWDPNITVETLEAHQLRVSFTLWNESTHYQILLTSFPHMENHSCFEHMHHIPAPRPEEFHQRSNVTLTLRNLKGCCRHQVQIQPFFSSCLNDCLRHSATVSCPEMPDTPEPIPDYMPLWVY

| SMILES | IC50 [µM] | IC50 compared with A18 | Inhibition of IL-17A-IL-17RA binding (serial dilutions of compound) |
| --- | --- | --- | --- |
| O=C1c2c(O)cc(O)cc2O[C@H](c2ccc(O)c(O)c2)[C@H]1O [taxifolin] | 0.3 to 10 |  |  |
| Oc1cc(O)c2c(c1)O[C@H](c1cc(O)c(O)c(O)c1)[C@H](O)C2 [epigallocatechin] | 0.3 to 10 |  |  |
| O=c1cc(-c2ccc(O)c(O)c2)oc2cc(O)cc(O)c12 [luteolin] | 0.3 to 10 |  |  |
| Oc1cc(O)c2c(c1)O[C@H](c1cc(O)c(O)c(O)c1)[C@@H](O)C2 [gallocatechin] | 0.3 to 10 |  |  |
| Oc1cc(O)c2cc(O)c(-c3cc(O)c(O)c(O)c3)[o+]c2c1 [A10, delphinidin] |  | slightly improved IC50 | can potently inhibit |
| O=C(O[C@@H]1Cc2c(O)cc(O)cc2O[C@@H]1c1ccc(O)c(O)c1)c1cc(O)c(O)c(O)c1 [epicatechin gallate] | 0.3 to 10 |  |  |
| O=c1c(O)c(-c2ccc(O)c(O)c2)oc2cc(O)cc(O)c12 [quercetin] | 0.3 to 10 |  |  |

Source: patent publication US10385034B2, “Flavonoid IL-17A inhibitors” (THE CLEVELAND CLINIC FOUNDATION, priority 2014, dated 2019)
